Data published in the supplement of paper PMC10849652.
Some of the results follow.

The chains behind the UniProt entries cited, without tags or fusion partners. Where a name states a change or a piece, a line headed by the entry shows the natural chain unless it says otherwise.
UniProt O75179: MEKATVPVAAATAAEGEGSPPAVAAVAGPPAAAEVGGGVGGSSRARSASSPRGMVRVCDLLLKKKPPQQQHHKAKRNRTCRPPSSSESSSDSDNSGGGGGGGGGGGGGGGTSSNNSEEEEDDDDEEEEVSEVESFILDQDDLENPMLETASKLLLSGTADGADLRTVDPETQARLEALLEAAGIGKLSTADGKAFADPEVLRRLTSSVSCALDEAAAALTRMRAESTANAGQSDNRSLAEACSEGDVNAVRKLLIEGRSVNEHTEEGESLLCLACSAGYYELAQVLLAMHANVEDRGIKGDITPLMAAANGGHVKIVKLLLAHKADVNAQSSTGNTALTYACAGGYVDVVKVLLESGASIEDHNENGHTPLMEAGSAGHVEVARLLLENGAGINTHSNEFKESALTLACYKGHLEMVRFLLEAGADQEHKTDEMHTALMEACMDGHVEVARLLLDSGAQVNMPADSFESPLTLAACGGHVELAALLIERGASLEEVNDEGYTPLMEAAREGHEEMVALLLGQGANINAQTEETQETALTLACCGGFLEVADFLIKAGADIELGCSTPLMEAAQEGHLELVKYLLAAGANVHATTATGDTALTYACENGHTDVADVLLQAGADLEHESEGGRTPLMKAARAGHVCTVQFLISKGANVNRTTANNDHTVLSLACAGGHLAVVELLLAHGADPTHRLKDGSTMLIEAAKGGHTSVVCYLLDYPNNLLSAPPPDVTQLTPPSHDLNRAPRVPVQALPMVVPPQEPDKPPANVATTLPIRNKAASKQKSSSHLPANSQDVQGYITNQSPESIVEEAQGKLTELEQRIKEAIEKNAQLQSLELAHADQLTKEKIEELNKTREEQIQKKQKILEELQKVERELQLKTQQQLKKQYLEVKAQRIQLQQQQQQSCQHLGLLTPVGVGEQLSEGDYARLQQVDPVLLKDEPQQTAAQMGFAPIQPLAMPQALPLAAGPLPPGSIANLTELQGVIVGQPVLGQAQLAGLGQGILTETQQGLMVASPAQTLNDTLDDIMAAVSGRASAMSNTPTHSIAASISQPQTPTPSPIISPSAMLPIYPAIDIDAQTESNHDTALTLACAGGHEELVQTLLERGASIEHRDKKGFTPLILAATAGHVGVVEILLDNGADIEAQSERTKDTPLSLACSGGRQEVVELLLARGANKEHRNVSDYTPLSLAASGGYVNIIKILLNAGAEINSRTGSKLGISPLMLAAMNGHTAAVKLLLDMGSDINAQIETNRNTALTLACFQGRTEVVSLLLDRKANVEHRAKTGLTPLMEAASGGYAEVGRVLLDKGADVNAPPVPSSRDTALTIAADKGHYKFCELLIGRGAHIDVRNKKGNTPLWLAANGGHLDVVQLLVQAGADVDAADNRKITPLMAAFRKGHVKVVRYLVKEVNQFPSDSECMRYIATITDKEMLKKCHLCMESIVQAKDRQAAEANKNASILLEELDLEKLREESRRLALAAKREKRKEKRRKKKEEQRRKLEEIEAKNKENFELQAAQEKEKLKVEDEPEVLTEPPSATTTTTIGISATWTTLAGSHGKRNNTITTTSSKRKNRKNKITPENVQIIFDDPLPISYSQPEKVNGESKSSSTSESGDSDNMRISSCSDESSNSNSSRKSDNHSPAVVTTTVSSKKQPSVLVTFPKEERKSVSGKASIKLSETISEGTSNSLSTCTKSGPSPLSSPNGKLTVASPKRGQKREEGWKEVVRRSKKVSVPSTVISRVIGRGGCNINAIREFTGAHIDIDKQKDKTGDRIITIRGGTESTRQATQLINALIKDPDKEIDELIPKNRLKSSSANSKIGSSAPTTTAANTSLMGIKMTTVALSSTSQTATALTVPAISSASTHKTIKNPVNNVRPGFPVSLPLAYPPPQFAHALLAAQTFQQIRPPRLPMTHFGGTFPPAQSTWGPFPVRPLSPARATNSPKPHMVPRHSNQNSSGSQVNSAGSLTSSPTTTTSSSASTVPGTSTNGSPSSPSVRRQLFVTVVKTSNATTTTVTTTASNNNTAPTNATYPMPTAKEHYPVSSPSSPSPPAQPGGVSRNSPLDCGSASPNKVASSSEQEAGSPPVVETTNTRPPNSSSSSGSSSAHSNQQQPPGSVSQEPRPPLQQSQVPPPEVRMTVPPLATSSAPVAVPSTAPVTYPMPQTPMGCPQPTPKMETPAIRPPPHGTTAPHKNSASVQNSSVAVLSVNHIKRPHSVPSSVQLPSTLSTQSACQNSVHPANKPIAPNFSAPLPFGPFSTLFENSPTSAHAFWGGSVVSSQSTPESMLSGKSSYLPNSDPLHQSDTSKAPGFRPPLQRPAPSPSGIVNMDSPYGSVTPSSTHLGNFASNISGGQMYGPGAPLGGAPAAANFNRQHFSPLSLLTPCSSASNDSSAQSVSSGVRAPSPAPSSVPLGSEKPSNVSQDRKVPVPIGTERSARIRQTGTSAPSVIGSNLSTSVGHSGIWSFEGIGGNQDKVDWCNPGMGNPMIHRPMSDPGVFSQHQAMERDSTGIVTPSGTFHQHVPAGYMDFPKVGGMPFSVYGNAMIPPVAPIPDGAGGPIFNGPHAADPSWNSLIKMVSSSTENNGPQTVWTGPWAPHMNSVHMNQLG
UniProt P02656: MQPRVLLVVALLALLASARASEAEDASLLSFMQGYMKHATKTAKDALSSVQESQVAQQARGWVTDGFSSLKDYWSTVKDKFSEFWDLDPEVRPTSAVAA
UniProt Q8N6T3: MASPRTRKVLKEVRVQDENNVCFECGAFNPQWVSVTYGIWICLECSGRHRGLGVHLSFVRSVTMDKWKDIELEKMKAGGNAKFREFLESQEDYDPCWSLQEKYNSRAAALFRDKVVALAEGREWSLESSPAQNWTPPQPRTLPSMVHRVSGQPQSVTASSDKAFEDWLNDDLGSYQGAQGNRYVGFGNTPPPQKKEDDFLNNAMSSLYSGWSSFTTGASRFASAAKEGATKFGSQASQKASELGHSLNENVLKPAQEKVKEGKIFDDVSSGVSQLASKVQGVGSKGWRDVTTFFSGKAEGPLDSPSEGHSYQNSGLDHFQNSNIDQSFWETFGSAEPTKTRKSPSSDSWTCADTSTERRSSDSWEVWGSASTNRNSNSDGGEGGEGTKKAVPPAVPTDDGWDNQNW
UniProt Q06481, whole entry, looked up: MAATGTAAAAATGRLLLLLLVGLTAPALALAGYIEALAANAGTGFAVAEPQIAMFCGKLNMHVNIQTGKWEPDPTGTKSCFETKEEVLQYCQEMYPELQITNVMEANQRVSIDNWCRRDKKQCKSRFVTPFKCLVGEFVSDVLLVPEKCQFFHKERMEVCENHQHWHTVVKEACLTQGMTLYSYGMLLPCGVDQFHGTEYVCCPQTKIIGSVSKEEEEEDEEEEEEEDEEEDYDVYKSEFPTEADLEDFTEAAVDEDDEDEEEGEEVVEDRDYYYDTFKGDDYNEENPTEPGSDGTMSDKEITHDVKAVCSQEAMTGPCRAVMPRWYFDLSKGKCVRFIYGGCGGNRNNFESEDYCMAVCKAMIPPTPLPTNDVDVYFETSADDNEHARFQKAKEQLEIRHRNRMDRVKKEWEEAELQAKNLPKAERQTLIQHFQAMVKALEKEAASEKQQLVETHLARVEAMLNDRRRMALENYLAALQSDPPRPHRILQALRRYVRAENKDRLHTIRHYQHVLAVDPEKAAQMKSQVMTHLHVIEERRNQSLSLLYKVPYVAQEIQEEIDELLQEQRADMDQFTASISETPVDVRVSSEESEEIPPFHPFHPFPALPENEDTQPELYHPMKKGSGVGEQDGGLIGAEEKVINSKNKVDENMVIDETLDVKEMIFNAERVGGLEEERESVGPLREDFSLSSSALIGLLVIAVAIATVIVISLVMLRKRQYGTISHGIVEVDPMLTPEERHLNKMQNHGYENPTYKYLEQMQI
UniProt P78540: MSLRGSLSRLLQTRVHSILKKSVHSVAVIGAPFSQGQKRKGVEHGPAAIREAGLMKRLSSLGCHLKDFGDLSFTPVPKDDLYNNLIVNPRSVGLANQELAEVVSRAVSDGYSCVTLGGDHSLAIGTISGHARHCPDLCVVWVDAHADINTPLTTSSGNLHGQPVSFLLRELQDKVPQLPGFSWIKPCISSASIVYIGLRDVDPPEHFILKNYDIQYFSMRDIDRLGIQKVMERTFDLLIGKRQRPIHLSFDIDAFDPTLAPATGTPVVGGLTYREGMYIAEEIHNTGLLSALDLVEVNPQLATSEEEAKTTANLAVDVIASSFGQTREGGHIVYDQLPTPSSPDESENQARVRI
UniProt P08758: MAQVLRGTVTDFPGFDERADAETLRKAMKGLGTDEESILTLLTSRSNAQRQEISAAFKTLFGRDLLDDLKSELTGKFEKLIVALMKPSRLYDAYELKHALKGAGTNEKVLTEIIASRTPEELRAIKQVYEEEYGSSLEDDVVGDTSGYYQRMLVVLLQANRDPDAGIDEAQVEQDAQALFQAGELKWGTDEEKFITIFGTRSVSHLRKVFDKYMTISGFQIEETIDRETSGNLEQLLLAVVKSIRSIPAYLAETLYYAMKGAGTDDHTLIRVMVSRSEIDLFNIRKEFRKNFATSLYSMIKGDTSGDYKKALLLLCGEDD
UniProt Q9NW15: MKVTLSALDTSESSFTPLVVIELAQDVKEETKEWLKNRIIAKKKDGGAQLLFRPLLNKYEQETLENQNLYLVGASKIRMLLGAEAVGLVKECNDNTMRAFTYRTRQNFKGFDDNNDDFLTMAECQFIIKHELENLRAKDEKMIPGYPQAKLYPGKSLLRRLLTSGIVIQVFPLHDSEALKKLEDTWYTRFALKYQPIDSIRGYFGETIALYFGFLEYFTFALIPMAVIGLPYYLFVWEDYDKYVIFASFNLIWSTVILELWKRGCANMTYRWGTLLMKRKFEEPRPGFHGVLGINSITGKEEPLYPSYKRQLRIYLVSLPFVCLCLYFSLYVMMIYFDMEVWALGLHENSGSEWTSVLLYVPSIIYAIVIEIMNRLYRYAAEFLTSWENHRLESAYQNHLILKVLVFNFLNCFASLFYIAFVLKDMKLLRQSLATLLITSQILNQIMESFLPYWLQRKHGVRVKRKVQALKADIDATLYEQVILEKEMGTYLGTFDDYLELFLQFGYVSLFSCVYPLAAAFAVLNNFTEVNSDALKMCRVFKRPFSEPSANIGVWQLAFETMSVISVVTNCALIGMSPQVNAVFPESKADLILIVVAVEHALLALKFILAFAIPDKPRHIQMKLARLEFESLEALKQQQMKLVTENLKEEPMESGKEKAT
UniProt Q9BUR5: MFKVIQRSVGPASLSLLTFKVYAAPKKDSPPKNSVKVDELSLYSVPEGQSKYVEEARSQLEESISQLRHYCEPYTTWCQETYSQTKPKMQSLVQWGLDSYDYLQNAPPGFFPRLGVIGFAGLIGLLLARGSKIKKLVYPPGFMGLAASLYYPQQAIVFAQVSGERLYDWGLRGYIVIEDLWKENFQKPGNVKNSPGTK
UniProt P05067, whole entry, looked up: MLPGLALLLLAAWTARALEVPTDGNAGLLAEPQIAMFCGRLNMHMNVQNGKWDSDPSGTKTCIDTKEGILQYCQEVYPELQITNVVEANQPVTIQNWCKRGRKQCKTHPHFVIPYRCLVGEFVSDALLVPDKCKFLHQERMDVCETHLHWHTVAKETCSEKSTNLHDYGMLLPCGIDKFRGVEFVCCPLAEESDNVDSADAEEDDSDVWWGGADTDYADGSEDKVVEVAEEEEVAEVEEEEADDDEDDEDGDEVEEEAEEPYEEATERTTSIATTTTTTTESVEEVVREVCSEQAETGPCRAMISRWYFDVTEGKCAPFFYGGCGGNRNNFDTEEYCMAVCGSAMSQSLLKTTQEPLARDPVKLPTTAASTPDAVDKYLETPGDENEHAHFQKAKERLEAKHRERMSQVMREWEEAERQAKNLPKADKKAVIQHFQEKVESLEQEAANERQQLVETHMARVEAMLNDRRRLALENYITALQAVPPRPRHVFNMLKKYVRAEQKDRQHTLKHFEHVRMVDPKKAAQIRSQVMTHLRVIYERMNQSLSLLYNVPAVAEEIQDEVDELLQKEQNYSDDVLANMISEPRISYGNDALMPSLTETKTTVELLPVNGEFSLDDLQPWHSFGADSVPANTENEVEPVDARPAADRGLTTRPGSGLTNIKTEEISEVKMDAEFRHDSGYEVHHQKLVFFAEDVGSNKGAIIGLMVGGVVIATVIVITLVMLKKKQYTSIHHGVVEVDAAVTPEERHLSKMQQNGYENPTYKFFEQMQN
UniProt P56377: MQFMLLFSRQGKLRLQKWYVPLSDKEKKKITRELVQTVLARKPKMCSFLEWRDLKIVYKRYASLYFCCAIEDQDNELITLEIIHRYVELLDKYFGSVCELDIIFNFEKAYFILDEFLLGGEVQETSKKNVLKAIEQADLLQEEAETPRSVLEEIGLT
UniProt P05090: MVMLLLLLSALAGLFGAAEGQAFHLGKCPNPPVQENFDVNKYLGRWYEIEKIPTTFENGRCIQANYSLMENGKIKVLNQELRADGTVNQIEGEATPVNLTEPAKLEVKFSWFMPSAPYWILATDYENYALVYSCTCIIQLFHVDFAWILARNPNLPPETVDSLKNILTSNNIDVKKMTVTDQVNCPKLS

Legend:
Assay in all cases: log2 fold change, soluble protein after heating vs DMSO (PISA); higher = thermal stabilisation; K562 cells, 10 uM, 30 min; active = over 0.2 and 3.5 SD of the protein, either way, in both replicates (recomputed)
[1] = compound: CC1=C(C=C(C=C1)NC(=O)C2=CC(=CC=C2)C(C)(C)C#N)NC3=CC4=C(C=C3)N=CN(C4=O)C
In short: (§1)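 Aliquots of K562 cells (2×10^6 cells/mL) treated with 10 μM compound for 30 min were heated for 3 min over 48°C-58°C. After pooling and extraction in PBS with 0.5% NP-40 at 4°C, soluble protein from a 21,000xg, 90 min spin was quantified by TMTpro 16plex LC-MS/MS with channel sums equalised. Thermal stability is expressed against control samples, from duplicates, as a log2 fold change.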

[2] = compound: CC1=C(C=C(C=C1)NC(=O)C2=CC(=CC=C2)N(C)C)NC(=O)C3=CC=C(C=C3)O
In short: as §1

[3] = compound: CC1=CC=C(C=C1)SC2=C3C=C(SC3=CN=C2)C(=O)N
In short: as §1

[4] = compound: CC1=NC(=CC=C1)C2=C(N=C(N2)C(C)(C)C)C3=CC4=NC=CN=C4C=C3
In short: as §1

[5] = compound: CCCCN(Cc1ccc(C(=O)NO)cc1)C(=O)Nc1ccccc1 [Nexturastat A]
In short: as §1

[6] = compound: CCCS(=O)(=O)Nc1ccc(F)c(C(=O)c2c[nH]c3ncc(-c4ccc(Cl)cc4)cc23)c1F [vemurafenib]
In short: as §1

[7] = compound: CCCS(=O)(=O)Nc1ccc(F)c(C(=O)c2c[nH]c3ncc(Cl)cc23)c1F
In short: as §1

[8] = compound: CCCc1cc(C)[nH]c(=O)c1CNC(=O)c1cc(-c2ccnc(N3CCN(C)CC3)c2)cc2c1cnn2C(C)C
In short: as §1

[9] = compound: CCN(CC)Cc1ccc2cc(COC(=O)Nc3ccc(C(=O)NO)cc3)ccc2c1 [givinostat]
In short: as §1

[10] = compound: CCN(CCCOc1ccc2c(Nc3cc(CC(=O)Nc4cccc(F)c4)[nH]n3)ncnc2c1)CCOP(=O)(O)O [barasertib]
In short: as §1

Measured: log2 fold change

ARHGDIB (UniProt P52566)
inactive: [1] 0.006 | [2] -0.028 | [3] -0.032 | [4] 0.024 | [5] -0.035 | [6] -0.007 | [7] -0.045 | [8] -0.213 | [9] -0.021 | [10] 0.045

ANKS1A (UniProt Q92625)
inactive: [1] -0.018 | [2] 0.016 | [4] -0.098 | [5] 0.284 | [10] -0.461

ANAPC7 (UniProt Q9UJX3)
inactive: [1] 0.008 | [2] -0.006 | [3] -0.009 | [4] -0.005 | [5] 0.058 | [6] -0.002 | [7] 0.016 | [8] 0.019 | [9] 0.061 | [10] -0.006

ANKRD17 (UniProt O75179)
inactive: [1] -0.083 | [2] -0.009 | [3] -0.001 | [4] -0.056 | [5] 0.24 | [6] -0.214 | [7] 0 | [8] -0.006 | [9] 0.19 | [10] 0.038

AP5Z1 (UniProt O43299)
inactive: [1] -0.092 | [2] 0.017 | [3] -0.027 | [4] -0.252 | [5] 0.08 | [6] -0.081 | [7] -0.094 | [8] 0.11 | [9] 0.092 | [10] -0.024

APOC3 (UniProt P02656)
inactive: [1] 0.182 | [2] -0.114 | [3] 0.092 | [5] -0.348 | [7] -0.2 | [8] -0.076 | [10] -0.051

ARGLU1 (UniProt Q9NWB6)
inactive: [1] 0.046 | [2] 0.055 | [3] -0.136 | [4] -0.044 | [5] 0.147 | [6] 0.061 | [7] -0.045 | [8] -0.009 | [9] 0.001 | [10] -0.075

ARFGAP1 (UniProt Q8N6T3)
inactive: [1] -0.053 | [2] -0.168 | [3] 0.107 | [4] 0.034 | [5] 0.038 | [6] 0.085 | [7] 0.124 | [8] 0.016 | [9] 0.029 | [10] 0.1

APLP2 (UniProt Q06481)
inactive: [1] 0.088 | [2] -0.043 | [3] -0.003 | [4] -0.009 | [5] -0.053 | [6] -0.033 | [7] 0.011 | [8] 0.018 | [9] -0.041 | [10] -0.04

APOH (UniProt P02749)
inactive: [1] -0.346 | [2] 0.265 | [3] 0.055 | [4] 0.192 | [6] 0.225 | [7] -0.063 | [8] -0.611 | [9] 0.046 | [10] -0.203

ARG2 (UniProt P78540)
inactive: [1] -0.06 | [2] 0.004 | [3] 0.05 | [4] 0.008 | [5] -0.009 | [6] 0.009 | [7] -0.008 | [8] -0.026 | [9] 0.002 | [10] 0.009

ANKRD46 (UniProt Q86W74)
inactive: [1] 0.054 | [2] 0.038 | [3] -0.037 | [5] -0.095 | [6] -0.015 | [7] 0.055 | [8] -0.011 | [9] 0.038 | [10] 0.015

ANXA5 (UniProt P08758)
inactive: [1] 0.057 | [2] -0.065 | [3] -0.01 | [4] 0.068 | [5] -0.116 | [6] 0.07 | [7] 0.071 | [8] 0.039 | [9] 0.033 | [10] 0.034

ARHGAP6 (UniProt O43182)
inactive: [1] -0.121 | [2] 0.041 | [4] -0.327 | [5] 0.341 | [8] 0.15

ARHGEF18 (UniProt Q6ZSZ5)
inactive: [1] 0.048 | [2] -0.126 | [3] 0.001 | [5] -0.102 | [6] 0.042 | [7] -0.051 | [8] 0.088 | [9] 0.123 | [10] -0.004

ARAP1 (UniProt Q96P48)
inactive: [1] 0.01 | [2] -0.05 | [3] -0.018 | [4] -0.005 | [5] 0.351 | [7] 0.079 | [8] 0.202 | [10] 0.05

ANP32A (UniProt P39687)
inactive: [1] 0.076 | [2] 0.005 | [3] 0.002 | [4] 0.093 | [5] -0.155 | [6] 0.048 | [7] 0.012 | [8] -0.01 | [9] 0.002 | [10] 0.015

ANKRD26 (UniProt Q9UPS8)
inactive: [1] -0.012 | [2] 0.098 | [3] 0.013 | [6] 0 | [7] 0.102 | [8] -0.057

ANXA4 (UniProt P09525)
inactive: [1] -0.023 | [2] -0.031 | [3] -0.017 | [4] -0.026 | [5] -0.016 | [6] 0.062 | [7] 0.051 | [8] 0.019 | [9] 0.045 | [10] 0.047

ARHGEF12 (UniProt Q9NZN5)
inactive: [1] 0.02 | [2] 0.091 | [3] -0.025 | [4] -0.107 | [5] 0.344 | [6] -0.083 | [7] -0.038 | [8] 0.121 | [9] 0.103 | [10] 0.248

ANAPC4 isoform 3 (UniProt Q9UJX5)
inactive: [1] 0.015 | [2] 0.012 | [3] -0.034 | [4] -0.006 | [5] 0.057 | [6] -0.053 | [7] 0.061 | [8] 0.026 | [9] -0.009 | [10] -0.007

ARHGAP4 isoform 2 (UniProt P98171)
inactive: [1] -0.14 | [2] 0.039 | [3] -0.08 | [6] 0.047 | [7] -0.049 | [8] -0.194 | [9] 0.034 | [10] -0.466

ANK2 (UniProt Q01484)
inactive: [1] -0.11 | [2] -0.031 | [3] 0.019 | [4] 0.026 | [6] -0.026 | [7] 0.012 | [8] 0.053 | [9] -0.047 | [10] 0.031

ANO10 (UniProt Q9NW15)
inactive: [1] 0.011 | [2] -0.02 | [3] -0.014 | [4] 0.028 | [5] -0.099 | [6] 0.043 | [7] 0.016 | [8] -0.004 | [9] -0.018 | [10] -0.016

APOO (UniProt Q9BUR5)
inactive: [1] -0.032 | [2] 0.021 | [3] 0.037 | [4] 0.029 | [5] -0.081 | [6] -0.001 | [7] 0.024 | [8] -0.053 | [9] 0.019 | [10] 0.001

Quoted at random: 2 entries already listed, in no set order.
ANK2 (UniProt Q01484)
inactive: [1] -0.11 | [2] -0.031 | [3] 0.019 | [4] 0.026 | [6] -0.026 | [7] 0.012 | [8] 0.053 | [9] -0.047 | [10] 0.031

ANO10 (UniProt Q9NW15)
inactive: [1] 0.011 | [2] -0.02 | [3] -0.014 | [4] 0.028 | [5] -0.099 | [6] 0.043 | [7] 0.016 | [8] -0.004 | [9] -0.018 | [10] -0.016

(list continues)

APP (UniProt P05067)
inactive: [1] 0 | [2] -0.051 | [3] -0.086 | [5] 0.106 | [7] 0.077 | [8] -0.033

ARHGAP21 (UniProt Q5T5U3)
inactive: [1] -0.091 | [2] 0.204 | [5] 0.247 | [8] 0.142 | [10] -0.456

ANTKMT (UniProt Q9BQD7)
inactive: [1] -0.035 | [2] 0.182 | [4] 0.126 | [5] -0.115 | [6] -0.059 | [9] -0.078 | [10] 0.019

AP5M1 (UniProt Q9H0R1)
inactive: [1] 0.075 | [2] -0.09 | [3] 0.055 | [4] 0.119 | [5] 0.059 | [6] -0.375 | [7] -0.003 | [8] -0.067 | [10] 0.061

APOM (UniProt O95445)
inactive: [1] 0.02 | [2] 0.282 | [3] -0.111 | [4] 0.029 | [5] -0.032 | [6] -0.032 | [7] -0.047 | [8] 0.097 | [9] -0.134 | [10] -0.139

AP1S2 (UniProt P56377)
inactive: [1] 0.004 | [3] 0.007 | [4] 0.017 | [5] -0.121 | [7] 0.087 | [8] 0.004 | [10] 0.047

APOD (UniProt P05090)
inactive: [1] 0.054 | [3] 0.74 | [6] -0.09 | [7] -0.117 | [8] -0.153 | [9] -0.155
